In PubChem BioAssay AID248 (DTP/NCI, 2004):
The list shows only some results of the screen, not a fair sample: it gathers tests that were run many times, whatever their T/C, doses with no T/C, and many T/C values between a quarter and a half above the control. Further doses and runs are listed elsewhere. T/C gives the treated animals as a percentage of the vehicle group. Some entries give survivors of the animals treated and no T/C: the source holds a T/C of zero for them, seemingly a mark for toxic or unscored doses. Some survivor counts are full or nearly so, which does not show that the dose was tolerated: the source hardly ever lists a survival T/C far under the control, and the zero likely stands for such cases as well. Counts of survivors are from the toxicity check (mostly the fifth day) where no day follows; animals may have died later. Schedule codes are those of the source, taken here to give the interval after Q, in days (D) or hours (H), and the number of doses after X. Some schedule codes hold Z or #, which are not explained here. Some entries were tested several times; their values stand side by side, smallest first. Where survival is the endpoint, this PubChem deposit counts one and a half times the control or more as active, and values a quarter to a half above the control carry no call in these data; other NCI protocols may use other cut-offs. Some T/C values are followed by the survivors on the day toxicity was checked, most often the fifth; where none is given, no animal had died by that day.

System: L1210 leukemia ip in BDF1 mice, survival T/C
Assay: NCI In Vivo Anticancer Drug Screen. Data for tumor model L1210 Leukemia (intraperitoneal) in B6D2F1 (BDF1) mice
Conditions: T/C endpoint: mean survival time, higher T/C = longer survival
[1] = dose: 4.87 mg/kg/injection, schedule: Q01DX009 (ip), vehicle: saline
[2] = dose: 5.0 mg/kg/injection, schedule: Q01DX001 (ip), vehicle: saline
[3] = dose: 20.0 mg/kg/injection, schedule: Q01DX001 (ip), vehicle: saline
[4] = dose: 40.0 mg/kg/injection, schedule: Q01DX001 (ip), vehicle: saline
[5] = dose: 80.0 mg/kg/injection, schedule: Q01DX001 (ip), vehicle: saline
[6] = dose: 100.0 mg/kg/injection, schedule: Q01DX001 (ip), vehicle: saline
[7] = dose: 200.0 mg/kg/injection, schedule: Q01DX001 (ip), vehicle: saline
[8] = dose: 75.0 mg/kg/injection, schedule: Q01DX001 (ip), vehicle: saline
[9] = dose: 300.0 mg/kg/injection, schedule: Q01DX001 (ip), vehicle: saline
[10] = dose: 100.0 mg/kg/injection, schedule: Q04DX003 (ip), vehicle: Klucel (hydroxypropylcellulose) (HPC)

SMILES: Clc1cc(N2CC2)nc(N2CC2)n1
- survivor count (dose: 2.14 mg/kg/injection, schedule: Q01DX009 (ip), vehicle: saline): 6 of 6
- T/C (dose: 3.12 mg/kg/injection, schedule: Q04DX003 (ip), vehicle: saline): 135 % of control
- survivor count (dose: 3.25 mg/kg/injection, schedule: Q01DX009 (ip), vehicle: saline): 6 of 6
- T/C (dose: 4.12 mg/kg/injection, schedule: Q04DX003 (ip), vehicle: saline): 143 % of control
- T/C (dose: 4.5 mg/kg/injection, schedule: Q01DX009 (ip), vehicle: carboxymethylcellulose (CMC)): 140 % of control
- T/C [1]: 133 % of control
- survivor count [1]: 6 of 6
- T/C [2]: 132 % of control
- survivor count (dose: 6.5 mg/kg/injection, schedule: Q01DX009 (ip), vehicle: saline with Tween-80): 6 of 6
- T/C (dose: 7.0 mg/kg/injection, schedule: Q01DX001 (ip), vehicle: saline): 135 % of control
- T/C (dose: 10.0 mg/kg/injection, schedule: Q01DX001 (ip), vehicle: carboxymethylcellulose (CMC)): 129 % of control
- survivor count (dose: 13.0 mg/kg/injection, schedule: Q01DX009 (ip), vehicle: saline with Tween-80): 4 of 6
- T/C (dose: 13.0 mg/kg/injection, schedule: Q04DX003 (ip), vehicle: saline): 128 % of control
- T/C (dose: 15.0 mg/kg/injection, schedule: Q01DX001 (ip), vehicle: carboxymethylcellulose (CMC)): 138 % of control
- survivor count [3]: 1 of 6
- survivor count (dose: 21.0 mg/kg/injection, schedule: Q04DX003 (ip), vehicle: saline): 2 of 6
- survivor count (dose: 30.0 mg/kg/injection, schedule: Q04DX003 (ip), vehicle: saline): 3 of 6
- survivor count [4]: 0 of 6
- survivor count [5]: 0 of 6
- survivor count [6]: 0 of 6
- survivor count [7]: 0 of 6
- survivor count (dose: 400.0 mg/kg/injection, schedule: Q01DX001 (ip), vehicle: saline): 0 of 6

SMILES: COc1ccc(C(=O)Nc2ccc(F)cc2)cc1
- survivor count (dose: 400.0 mg/kg/injection, schedule: Q01DX009 (ip), vehicle: carboxymethylcellulose (CMC)): 5 of 6

SMILES: COc1cc(N(CCCl)CCCl)c(OC)cc1C=Nc1ccc(-c2csc(Cc3ccccc3)n2)c(Cl)c1
- T/C (dose: 75.0 mg/kg/injection, schedule: Q01DX001 (ip), vehicle: carboxymethylcellulose (CMC)): 148 % of control
- T/C (dose: 132.0 mg/kg/injection, schedule: Q01DX001 (ip), vehicle: carboxymethylcellulose (CMC)): 130 % of control
- T/C (dose: 200.0 mg/kg/injection, schedule: Q01DX001 (ip), vehicle: carboxymethylcellulose (CMC)): 136 % of control
- survivor count (dose: 200.0 mg/kg/injection, schedule: Q01DX009 (ip), vehicle: carboxymethylcellulose (CMC)): 2 of 6
- survivor count (dose: 300.0 mg/kg/injection, schedule: Q01DX009 (ip), vehicle: carboxymethylcellulose (CMC)): 1 of 6

SMILES: CCCCCCCCCCCC[n+]1ccc2ccccc2c1
- survivor count (dose: 2.0 mg/kg/injection, schedule: Q01DX001 (ip), vehicle: carboxymethylcellulose (CMC)): 4 of 4
- survivor count (dose: 16.0 mg/kg/injection, schedule: Q01DX001 (ip), vehicle: carboxymethylcellulose (CMC)): 1 of 4

SMILES: CCOC(=O)c1ccc(NC(=S)NC(=O)c2ccc(Cl)cc2Cl)cc1
- survivor count (dose: 100.0 mg/kg/injection, schedule: Q01DX009 (ip), vehicle: saline with Tween-80): 6 of 6

SMILES: Cc1cccc(NC(=O)Oc2ccccc2C(N)=O)c1
- survivor count (dose: 200.0 mg/kg/injection, schedule: Q01DX009 (ip), vehicle: Klucel (hydroxypropylcellulose) (HPC)): 3 of 3

SMILES: O=C(CCCCCCCCC(=O)NCC1(c2ccccc2)CCNCC1)NCC1(c2ccccc2)CCNCC1
- survivor count (dose: 5.0 mg/kg/injection, schedule: Q01DX Z (ip), vehicle: saline): 6 of 6
- survivor count (dose: 37.5 mg/kg/injection, schedule: Q04DX003 (ip), vehicle: saline with Tween-80): 0 of 6
- survivor count (dose: 75.0 mg/kg/injection, schedule: Q04DX003 (ip), vehicle: saline with Tween-80): 0 of 6
- survivor count (dose: 100.0 mg/kg/injection, schedule: Q01DX Z (ip), vehicle: saline): 0 of 6
- survivor count (dose: 150.0 mg/kg/injection, schedule: Q04DX003 (ip), vehicle: saline with Tween-80): 0 of 6
- survivor count (dose: 300.0 mg/kg/injection, schedule: Q01DX Z (ip), vehicle: saline): 0 of 6

SMILES: Cc1cc(S(=O)(=O)F)cc(Cl)c1S
- survivor count (dose: 100.0 mg/kg/injection, schedule: Q04DX002 (ip), vehicle: saline with Tween-80): 1 of 3

SMILES: N=c1c2c(C(N)=O)cn(C3OC(CO)C(O)C3O)c2ncn1O (stereo unspecified)
- T/C [2]: 140 % of control
- survivor count (dose: 20.0 mg/kg/injection, schedule: Q01DX001 (ip), vehicle: saline with Tween-80): 2 of 5
- survivor count (dose: 20.0 mg/kg/injection, schedule: Q01DX001 (ip), vehicle: water): 6 of 6
- survivor count (dose: 40.0 mg/kg/injection, schedule: Q01DX001 (ip), vehicle: saline with Tween-80): 0 of 6
- survivor count [4]: 2 of 6
- survivor count (dose: 40.0 mg/kg/injection, schedule: Q01DX001 (ip), vehicle: water): 0 of 6
- survivor count [8]: 0 of 6
- survivor count [5]: 0 of 6
- survivor count (dose: 80.0 mg/kg/injection, schedule: Q01DX001 (ip), vehicle: water): 0 of 6
- survivor count (dose: 100.0 mg/kg/injection, schedule: Q01DX001 (ip), vehicle: water): 0 of 6
- survivor count (dose: 150.0 mg/kg/injection, schedule: Q01DX001 (ip), vehicle: saline): 0 of 6
- survivor count (dose: 200.0 mg/kg/injection, schedule: Q01DX001 (ip), vehicle: water): 0 of 6
- survivor count [9]: 0 of 6
- survivor count (dose: 400.0 mg/kg/injection, schedule: Q01DX001 (ip), vehicle: water): 0 of 6

SMILES: COc1ccc(OC)c(NC(=O)Nc2ccc(Nc3ccccc3)cc2)c1
- survivor count [10]: 6 of 6

SMILES: Nc1nnc(-c2ccccc2)s1
- survivor count [10]: 6 of 6
- survivor count (dose: 200.0 mg/kg/injection, schedule: Q04DX003 (ip), vehicle: Klucel (hydroxypropylcellulose) (HPC)): 6 of 6
- survivor count (dose: 400.0 mg/kg/injection, schedule: Q04DX003 (ip), vehicle: Klucel (hydroxypropylcellulose) (HPC)): 0 of 6

SMILES: CC1(C)CN1P(=O)(N1CC1(C)C)N1CC1(C)C (stereo unspecified)
- T/C (dose: 1.5 mg/kg/injection, schedule: Q01DX009 (ip), vehicle: saline): 130 % of control
- T/C (dose: 3.0 mg/kg/injection, schedule: Q01DX009 (ip), vehicle: saline): 135 % of control
- T/C [2]: 127 % of control
- T/C (dose: 10.0 mg/kg/injection, schedule: Q01DX001 (ip), vehicle: saline): 127 % of control
- T/C (dose: 10.0 mg/kg/injection, schedule: Q01DX009 (ip), vehicle: saline): 127 % of control
- T/C [3]: 139 % of control
- T/C [8]: 142 % of control
- survivor count (dose: 75.0 mg/kg/injection, schedule: Q01DX009 (ip), vehicle: saline): 6 of 6
- T/C (dose: 112.5 mg/kg/injection, schedule: Q01DX001 (ip), vehicle: saline): 134 % of control [5 of 6 alive]
- survivor count (dose: 150.0 mg/kg/injection, schedule: Q01DX009 (ip), vehicle: saline): 0 of 6
- survivor count [9]: 2 of 6 and 5 of 6
- survivor count (dose: 600.0 mg/kg/injection, schedule: Q01DX001 (ip), vehicle: saline): 5 of 6

SMILES: N#CC(CCCc1cccc(N2CN=C(N)N=C2N)c1)c1ccccc1 (stereo unspecified)
- survivor count [6]: 0 of 6
- survivor count [7]: 0 of 6
